The results in this text go back to article PMC8063330 (Oncology Letters, 2021).

Common to all, as to format: cell-based
For series [1], the system named is gastric cancer cell lines. Description: cytotoxic assay with various gastric cancer cell lines.
Series [2] deals with SNU-638 cells. Description: cytotoxic assay in SNU-638.
Series [3] relates to MKN-45 cells. Description: cytotoxic assay in MKN-45.

`CCNC(=O)C[C@@H]1N=C(c2ccc(Cl)cc2)c2cc(OC)ccc2-n2c(C)nnc21` [I-BET-762]: the “cell growth inhibition in I-BET-762-resistant cell lines” value in series [1] (MKN45, SH-10-TC, SNU668, MKN7 and SNU216) was “resistant”. For the same molecule, in series [1] (various gastric cancer cell lines, 72 h, WST-1), the “cytotoxic effect on gastric cancer cell lines” value is recorded as “exerts inhibition only on limited cell lines”. Besides, the cytotoxic effect entry in series [2] is “had cytotoxic effect”; in series [3], “had no cytotoxic effect”.
